Measurements published in patent US20220265568A1, “PROCESS FOR PREPARING PRESSURE SENSITIVE ADHESIVE COMPOUNDS FOR USE IN A TRANSDERMAL THERAPEUTIC SYSTEM” (LTS LOHMANN THERAPIE-SYSTEME AG, priority 2019, published 2022).
At least one structure is not confirmed: it was looked up by name or label, or the drawing left a doubt.

Test: Aging behavior: 1:1 mixtures of fingolimod with ethyl acetate or vinyl acetate in methanol, LC/MS and LCMS/MS
Assay type: physicochemical
Conditions: room temperature
[1] = fingolimod with ethyl acetate 1:1 in methanol, age of sample 2 days
[2] = fingolimod with vinyl acetate 1:1 in methanol, age of sample 1 month
[3] = fingolimod with vinyl acetate 1:1 in methanol, age of sample 1 month, listed as fingolimod
[4] = fingolimod with vinyl acetate 1:1 in methanol, age of sample 2 days

With CCCCCCCCc1ccc(CCC(N)(CO)CO)cc1 [Fingolimod] the “Number of byproducts with a fraction > 0.2% in the solution” value [1] was 3, the “Sum total of all byproducts” value [1] was “around 15%” and the “Number of byproducts with a fraction > 0.2% in the solution” value [2] was 16. The “Sum total of all byproducts” value [2] was “around 44%”, the “Number of byproducts with a fraction > 0.2% in the solution” value [3] was “further byproducts form after one month” and the “Sum total of all byproducts” value [3] was “no rise in the overall concentration of byproducts”. The “Number of byproducts with a fraction > 0.2% in the solution” value [4] was 8 and the “Sum total of all byproducts” value [4] was “around 57%”.
